From PubChem BioAssay AID540256 (National Center for Advancing Translational Sciences (NCATS), 2011)
Hit rate of the full screen: of about 300,000 compounds, about 3,700 (1.2%) were called active. Inconclusive results, whose numbers are uncertain, are shown with a selection of clear calls. Calls come from the whole dose curve; tested in HEK293 cells. Potencies of inconclusive entries are doubtful fits and often do not repeat.

Experiment: qHTS for Inhibitors of binding or entry into cells for Lassa Virus; note: nearly all actives have a fitted effect of over 50% in size
Details: Lassa virus pseudotype entry inhibition, cell reporter; activity change, negative = inhibition: at 37.9 µM (top of the series) unless noted
% is set by controls: 0 for no effect and ±100 for the full control effect; potency is the fitted concentration of half-maximal effect.

Compound | Potency | activity change, negative = inhibition
CC(C)NC(=O)COCc1cc(-c2ccc3c(c2)OCO3)on1 | inconclusive: 28.2 µM [activator, single point] | –
CCc1ccc(C2c3[nH]c4ccccc4c3CCN2C(=O)c2ccc(=O)n(C)n2)cc1 (stereo unspecified) | inconclusive: 35.5 µM [inhibitor, single point] | –
Cc1cc(OCc2cc(C(=O)N(C)Cc3ccccn3)no2)cc(C)c1Cl | inconclusive: 2.51 µM [activator, single point] | –
COc1ccccc1CNC(=O)c1oc2ccc(S(=O)(=O)N3CCCCC3)cc2c1C | inconclusive: 11.2 µM [inhibitor, partial curve, poor fit] | –
O=C(Nc1ccc(NC(=O)C2CCCCC2)cn1)c1ccco1 | inconclusive: 3.16 µM [inhibitor, full curve, poor fit] | –
COc1cc(/C=N\NC(=O)c2ccc(C)nc2)ccc1OC(=O)c1ccco1 | inconclusive: 12.6 µM [activator, partial curve, poor fit] | –
S=c1nc(NCCc2ccccc2Cl)c2ccccc2[nH]1 | inconclusive: 8.91 µM [activator, partial curve, poor fit] | –
O=C(NCc1ccco1)c1cccc(-c2nnc(-c3ccccc3)o2)c1 | inconclusive: 14.1 µM [inhibitor, partial curve] | –
CC(C)(C)n1ncc2c(=O)n(Cc3ccc(Cl)cc3Cl)cnc21 | inconclusive: 6.31 µM [inhibitor, single point] | –
NC(=S)N=Nc1c(O)n(CCCl)c2ccccc12 | inactive | –
CN(C)S(=O)(=O)c1cccc(NC(=O)c2cc(-c3cccs3)nn2-c2cccc(Cl)c2)c1 | inconclusive: 5.17 µM [inhibitor, partial curve] | –
CCC1CCCCN1S(=O)(=O)c1ccc(C(=O)Nc2sc3c(c2C(=O)NC)CCC3)cc1 (stereo unspecified) | inconclusive: 0.562 µM [inhibitor, partial curve, poor fit] | –
COc1ccc(C2CC(C(F)(F)F)n3nc(C(=O)Nc4ccc5c(c4)OCO5)cc3N2)cc1 (stereo unspecified) | inconclusive: 5.62 µM [inhibitor, full curve, poor fit] | –
COc1ccc(-c2nc3ccccc3s2)cc1NC(=O)COc1ccc(C)cc1 | inconclusive: 6.31 µM [activator, partial curve, poor fit] | –
Cc1onc(-c2ccccc2)c1C(=O)OCC(=O)N1CCN(c2ccccc2)CC1 | inconclusive: 35.5 µM [inhibitor, single point] | –
CCOc1ccc2[nH]c(=O)c(CN(CCO)Cc3nnnn3CCc3ccccc3)cc2c1 | inactive | –
COC(=O)c1[nH]c2ccc(Br)cc2c1NC(=O)C(C)N1CCN(C2CCCCC2)CC1 (stereo unspecified) | inconclusive: 22.4 µM [inhibitor, single point] | –
COc1cc(/C=C2/NC(=O)N(CC(=O)Nc3cccc(C)c3)C2=O)ccc1OCC(N)=O | inactive | –
CN(C)S(=O)(=O)c1ccc(Cl)c(C(=O)Nc2nc3ccccc3[nH]2)c1 | inconclusive: 35.5 µM [inhibitor, single point] | –
CCc1nnc(NC(=O)c2ccc(OC)cc2)s1 | inconclusive: 4.47 µM [activator, partial curve, poor fit] | –
COC(=O)c1ccc(Nc2nnc(-c3ccc(C)c(S(=O)(=O)N4CCN(C)CC4)c3)c3ccccc23)cc1 | inconclusive: 14.1 µM [inhibitor, single point] | –

An excerpt from above in order of number of heavy atoms, high to low.
Compound | Potency | activity change, negative = inhibition
COC(=O)c1ccc(Nc2nnc(-c3ccc(C)c(S(=O)(=O)N4CCN(C)CC4)c3)c3ccccc23)cc1 | inconclusive: 14.1 µM [inhibitor, single point] | –
CCC1CCCCN1S(=O)(=O)c1ccc(C(=O)Nc2sc3c(c2C(=O)NC)CCC3)cc1 (stereo unspecified) | inconclusive: 0.562 µM [inhibitor, partial curve, poor fit] | –
COC(=O)c1[nH]c2ccc(Br)cc2c1NC(=O)C(C)N1CCN(C2CCCCC2)CC1 (stereo unspecified) | inconclusive: 22.4 µM [inhibitor, single point] | –
Cc1onc(-c2ccccc2)c1C(=O)OCC(=O)N1CCN(c2ccccc2)CC1 | inconclusive: 35.5 µM [inhibitor, single point] | –
COc1cc(/C=N\NC(=O)c2ccc(C)nc2)ccc1OC(=O)c1ccco1 | inconclusive: 12.6 µM [activator, partial curve, poor fit] | –
Cc1cc(OCc2cc(C(=O)N(C)Cc3ccccn3)no2)cc(C)c1Cl | inconclusive: 2.51 µM [activator, single point] | –
CN(C)S(=O)(=O)c1ccc(Cl)c(C(=O)Nc2nc3ccccc3[nH]2)c1 | inconclusive: 35.5 µM [inhibitor, single point] | –
CC(C)NC(=O)COCc1cc(-c2ccc3c(c2)OCO3)on1 | inconclusive: 28.2 µM [activator, single point] | –
CCc1nnc(NC(=O)c2ccc(OC)cc2)s1 | inconclusive: 4.47 µM [activator, partial curve, poor fit] | –

Continued.

Compound | Potency | activity change, negative = inhibition
Cc1cccc(CN2C(=O)c3ccccc3S(=O)(=O)c3ccc(C(=O)NCCC4=CCCCC4)cc32)c1 | inconclusive: 7.08 µM [inhibitor, full curve, poor fit] | –
COc1ccc(-n2ncc3c(NCc4ccc5c(c4)OCO5)ncnc32)cc1 | inactive | –
Cc1ccc(C(=O)Nc2cccc(-c3nc4cccnc4s3)c2C)cc1 | inconclusive: 0.794 µM [inhibitor, full curve, poor fit] | –
CN(C)c1ccc(Nc2nc(-c3cccnc3)cs2)cc1 | inconclusive: 20 µM [inhibitor, single point] | –
CCC(=O)c1ccccc1OCCSc1nc(C)cc(=O)[nH]1 | inactive | –
CC(C)C(NC(=O)C(C)N1C(=O)c2ccccc2C1=O)c1ccccc1 (stereo unspecified) | – | inconclusive: 47% [activator] [at 46.1 µM]
CC1CCCCC1NC(=O)C1CCC(CNS(=O)(=O)c2ccccc2)CC1 (stereo unspecified) | inconclusive: 35.5 µM [inhibitor, single point] | –
CC1CCCN(C(=S)NCc2ccccc2)C1 (stereo unspecified) | inconclusive: 2.82 µM [inhibitor, partial curve, poor fit] | –
COc1ccc(-c2cc(OC(=O)c3ccc(Cl)cc3)c3c(C)oc(C)c3c(=O)c2)cc1 | inconclusive: 5.62 µM [inhibitor, partial curve, poor fit] | –
CN1Cc2c(N3CCOCC3)nc3sc(C#N)c(N)c3c2CC1(C)C | inconclusive: 3.98 µM [activator, full curve, poor fit] | –
CC1CC(OC(=O)c2ccccc2C(=O)c2ccc(Cl)cc2)C(=O)O1 (stereo unspecified) | inactive | –
Cc1ccc(N(CC(=O)NCc2ccc(Cl)cc2)S(=O)(=O)N(C)C)cc1 | inconclusive: 5.62 µM [activator, single point] | –
CC(C)(C)NC(=O)C(c1cccs1)N(Cc1ccc(F)cc1)C(=O)c1csnn1 (stereo unspecified) | inconclusive: 7.08 µM [inhibitor, partial curve, poor fit] | –
COc1ccc(C(=O)Nc2ccccc2C(=O)N/N=C/c2ccccc2OC)cc1 | inactive | –
N=c1c2c(n(Cc3ccc([N+](=O)[O-])cc3)c3c1CCC3)CCCC2 | inactive | –
Cc1ccc(S(=O)(=O)N2CCN(C(=O)N3CCOCC3)C2C(C)C)cc1 (stereo unspecified) | inactive | –
CC1=CN2C(=N)/C(=C/c3ccc(Sc4ccc(Cl)cc4)o3)C(=O)N=C2S1 | inactive | –
CCc1ccc(C2NC(=S)NC3=C2C(=O)CCC3)cc1 (stereo unspecified) | inactive | –
O=C(CSc1nnc(CNc2ccc(Cl)cc2)o1)Nc1nc2c(s1)CCCC2 | inconclusive: 5.17 µM [inhibitor, single point] | –
O=C1CN(C(=O)Cc2ccc(F)cc2)C(c2ccccc2)c2cc(Cl)ccc2N1 (stereo unspecified) | inconclusive: 35.5 µM [inhibitor, single point] | –
